Our source for the binding values is paper PMC7066179.

No constants are given. Whether binding was seen depends on the method and setting. Binding seen in cells or lysates may run through a third protein. A result given as binding can be weak or reduced; the word gives no strength.

This assay has as its target murine BR-FLAG expressed in mouse muscle by AAV9 (mouse). The assay is described as follows: co-IP; mouse tissue mitochondria with AAV9-expressed BR-FLAG, solubilized with 1% digitonin (4 g/g) in IP buffer (150 mM NaCl, 1 mM EDTA, 50 mM HEPES-KOH pH 7.4); anti-FLAG M2 resin overnight, washes with 0.1% digitonin, elution with 3XFLAG peptide; immunoblot.

B1: UQCRC1 (endogenous, mouse mitochondria) (protein, UniProt Q9CZ13 35-480)
chain: TATFAQALQSVPETQVSILDNGLRVASEQSSHATCTVGVWIDAGSRYETEKNNGAGYFLEHLAFKGTKNRPGNALEKEVESIGAHLNAYSTREHTAYLIKALSKDLPKVVELLADIVQNSSLEDSQIEKERDVILREMQENDASMQNVVFDYLHATAFQGTPLAQAVEGPSENVRRLSRTDLTDYLNRHYKAPRMVLAAAGGVEHQQLLDLAQKHLSSVSRVYEEDAVPGLTPCRFTGSEIRHRDDALPLAHVAIAVEGPGWANPDNVTLQVANAIIGHYDCTYGGGVHLSSPLASVAVANKLCQSFQTFNISYSDTGLLGAHFVCDAMSIDDMVFFLQGQWMRLCTSATESEVTRGKNILRNALVSHLDGTTPVCEDIGRSLLTYGRRIPLAEWESRIQEVDAQMLRDICSKYFYDQCPAVAGYGPIEQLPDYNRIRSGMFWLRF
On to B1, for which the binding entry was “binds”.
